These are yes or no findings as the source states them, for the method shown.

By UniProt entry, the sequences of proteins in these tests, tags left out. Residues count along the entry.
UniProt P02769, residues 25-607: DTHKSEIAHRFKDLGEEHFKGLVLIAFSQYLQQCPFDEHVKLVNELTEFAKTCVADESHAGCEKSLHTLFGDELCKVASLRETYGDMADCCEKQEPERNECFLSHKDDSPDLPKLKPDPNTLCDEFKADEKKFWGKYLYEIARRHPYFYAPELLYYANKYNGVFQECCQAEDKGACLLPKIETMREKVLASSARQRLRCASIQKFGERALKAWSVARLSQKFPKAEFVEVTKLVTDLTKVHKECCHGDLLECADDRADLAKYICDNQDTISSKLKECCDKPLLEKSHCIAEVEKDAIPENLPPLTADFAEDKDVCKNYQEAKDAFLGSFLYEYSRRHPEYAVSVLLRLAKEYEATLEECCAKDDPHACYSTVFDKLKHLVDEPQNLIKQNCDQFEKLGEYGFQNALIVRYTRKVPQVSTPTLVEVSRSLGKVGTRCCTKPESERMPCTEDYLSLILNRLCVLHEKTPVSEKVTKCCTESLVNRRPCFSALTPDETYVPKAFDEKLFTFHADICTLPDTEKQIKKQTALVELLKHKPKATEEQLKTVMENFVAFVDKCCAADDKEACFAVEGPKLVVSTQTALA
UniProt P08637, residues 17-254: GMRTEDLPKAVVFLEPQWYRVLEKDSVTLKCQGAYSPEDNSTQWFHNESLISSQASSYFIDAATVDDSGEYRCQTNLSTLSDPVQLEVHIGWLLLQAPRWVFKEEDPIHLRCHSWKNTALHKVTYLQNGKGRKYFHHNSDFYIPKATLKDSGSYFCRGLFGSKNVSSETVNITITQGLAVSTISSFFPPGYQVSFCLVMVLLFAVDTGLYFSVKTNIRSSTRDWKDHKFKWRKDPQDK

The results in this text go back to PMC5581011.

In the test the target is serum albumin (coat of control wells in the biological rolling assay) (bovine (BSA in the methods)) (UniProt P02769). The test is described as follows: biological rolling assay (BRA; adherence of receptor-bearing cells to coated U-bottom wells); wells coated overnight with 10 μg/mL protein in 0.2 M bicarbonate pH 9.4 at 4°C, blocked with PBS/1% BSA; 2.5x10^4 Jurkat or CHO transfectants with or without sCA125 in ADCC assay buffer, 37°C, 5 hr; competitors at 50 μg/mL; only the target purified.

Regarding “human CD16a Fc-gamma receptor on Jurkat-CD16a cells (from UniProt P08637 17-254)”, the binding entry was “no binding”.
